No constants are given. Whether binding was seen depends on the method and setting. Binding seen in cells or lysates may run through a third protein. Some results given as binding are weak or reduced against the parent protein; the word gives no strength.

The chains behind the UniProt entries cited, without tags or fusion partners.
UniProt P85037: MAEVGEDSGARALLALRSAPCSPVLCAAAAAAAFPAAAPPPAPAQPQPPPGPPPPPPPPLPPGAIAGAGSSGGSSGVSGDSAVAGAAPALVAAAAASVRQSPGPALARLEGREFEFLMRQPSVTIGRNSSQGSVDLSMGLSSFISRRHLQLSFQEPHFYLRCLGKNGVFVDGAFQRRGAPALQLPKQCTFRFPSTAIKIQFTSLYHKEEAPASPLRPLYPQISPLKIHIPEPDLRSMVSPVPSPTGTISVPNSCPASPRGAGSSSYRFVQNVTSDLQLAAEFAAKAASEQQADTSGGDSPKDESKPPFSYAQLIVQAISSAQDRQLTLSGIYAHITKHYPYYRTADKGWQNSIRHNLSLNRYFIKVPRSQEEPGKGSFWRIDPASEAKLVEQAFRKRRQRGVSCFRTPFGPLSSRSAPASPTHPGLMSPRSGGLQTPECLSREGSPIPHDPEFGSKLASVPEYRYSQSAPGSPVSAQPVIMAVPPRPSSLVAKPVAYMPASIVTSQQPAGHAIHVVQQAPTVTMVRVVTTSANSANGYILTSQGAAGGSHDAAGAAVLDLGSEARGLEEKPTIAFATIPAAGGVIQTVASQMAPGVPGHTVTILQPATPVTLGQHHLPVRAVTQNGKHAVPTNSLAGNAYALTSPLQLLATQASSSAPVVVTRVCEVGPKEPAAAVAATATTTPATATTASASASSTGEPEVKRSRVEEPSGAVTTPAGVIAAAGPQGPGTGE

The values that follow come from paper PMC5473929.

In the test the target is FOXK1 (Forkhead box k1), endogenous (human (endogenous in HEK 293T, LoVo, SW1116)) (UniProt P85037). Briefly: co-IP; whole cell lysates of SW1116 and LoVo cells, endogenous proteins; immunoprecipitation with anti-FOXK1 antibody (normal rabbit IgG as control), protein A-agarose, 4 °C; western blot with anti-RUFY3.

B1: endogenous RUFY3 (protein, UniProt Q7L099 1-469)
chain: MSALTPPTDMPTPTTDKITQAAMETIYLCKFRVSMDGEWLCLRELDDISLTPDPEPTHEDPNYLMANERMNLMNMAKLSIKGLIESALNLGRTLDSDYAPLQQFFVVMEHCLKHGLKAKKTFLGQNKSFWGPLELVEKLVPEAAEITASVKDLPGLKTPVGRGRAWLRLALMQKKLSEYMKALINKKELLSEFYEPNALMMEEEGAIIAGLLVGLNVIDANFCMKGEDLDSQVGVIDFSMYLKDGNSSKGTEGDGQITAILDQKNYVEELNRHLNATVNNLQAKVDALEKSNTKLTEELAVANNRIITLQEEMERVKEESSYILESNRKGPKQDRTAEGQALSEARKHLKEETQLRLDVEKELEMQISMRQEMELAMKMLEKDVCEKQDALVSLRQQLDDLRALKHELAFKLQSSDLGVKQKSELNSRLEEKTNQMAATIKQLEQSEKDLVKQAKTLNSAANKLIPKHH
B1: the binding result was “binds”.
